Experimental data as given in PubChem BioAssay AID652054 (National Center for Advancing Translational Sciences (NCATS), 2013).
Among all 360,000 compounds or so, about 9,100 (2.5%) were called active. This list was built around the results that the source calls inconclusive (neither active nor inactive); the mix of calls is not that of the screen. Rule as the data show it: active = max response below about -50%; inconclusive = no clear call, values can overlap the other calls; inactive = above that.

Protein sequences, listed by entry. Tags and fused reporters are not part of them.
UniProt P35462, whole entry, looked up: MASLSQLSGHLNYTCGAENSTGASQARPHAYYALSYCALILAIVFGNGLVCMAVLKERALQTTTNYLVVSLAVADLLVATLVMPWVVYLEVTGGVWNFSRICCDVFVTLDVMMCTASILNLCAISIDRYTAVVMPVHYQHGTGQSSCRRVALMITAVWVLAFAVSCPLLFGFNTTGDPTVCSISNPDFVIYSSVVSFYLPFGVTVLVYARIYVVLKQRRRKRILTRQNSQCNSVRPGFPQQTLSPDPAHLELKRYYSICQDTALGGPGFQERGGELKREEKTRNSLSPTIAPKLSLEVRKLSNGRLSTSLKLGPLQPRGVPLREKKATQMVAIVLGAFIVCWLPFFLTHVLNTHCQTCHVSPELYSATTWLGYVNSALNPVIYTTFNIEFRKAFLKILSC

Target: D(3) dopamine receptor (Homo sapiens) (UniProt P35462)
Assay: qHTS of D3 Dopamine Receptor Antagonist: qHTS
Conditions: D3R cells, DiscoveRx beta-arrestin luminescence, antagonist mode; hits give low values
Procedure, shortened: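 Cells plated overnight at 1500 cells/well, then exposed to library compounds with dopamine controls for 90 minutes at 37 degrees C. DiscoveRx reagent added for 30–60 minutes at room temperature; luminescence read, quantitative HTS format.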
% is scaled to controls: 0 for no effect and ±100 for the full control effect.

| Compound | max response, negative = inhibition |
| --- | --- |
| Cc1ccc(NC(=O)Cn2cc(S(=O)(=O)c3ccc(F)cc3)c(=O)c3cc(F)ccc32)cc1 | inconclusive: -31.7% |
| COc1cccc(NS(=O)(=O)c2ccc3c(c2)CC(=O)N3)c1 | inconclusive: -30.9% |
| CC(=O)c1c(C)[nH]c(C(=O)OCC(=O)C(C)(C)C)c1C | inactive: 2.56% |
| CCC(c1nnnn1C(C)(C)C)N1CCN(c2cc(Cl)ccc2C)CC1 (configuration not stated) | active: -55.9% |
| Cc1ccc2c(c1)c1ccc3c(c1n2C)C(=O)C=CC3=O | inactive: -13.6% |
| OCC1(Cc2ccccc2F)CCCN(Cc2c(F)ccc(F)c2F)C1 (configuration not stated) | inconclusive: -47.2% |
| COc1ccc(C(CNC(=O)c2ccco2)N2CCCCC2)cc1 (configuration not stated) | inactive: -25.9% |
| O=C(NNC(=O)c1nn(-c2ccc(F)cc2)ccc1=O)c1ccc(Cl)cc1 | inconclusive: -39.3% |
| O=C(Nc1ccc(-c2cscn2)cc1)C1CCCN(Cc2ccccc2)C1 (configuration not stated) | inconclusive: -35% |
| CCSC1=C(C#N)C(c2ccccc2Cl)C(C(=O)c2cccs2)C(O)(C(F)(F)F)N1 (configuration not stated) | inconclusive: -39.9% |
| O=C(COc1ccccc1Br)NCc1ccco1 | inconclusive: -33.1% |
| COc1ccc(C(CCNC(C)c2ccccc2)c2ccc(F)cc2)cc1 (configuration not stated) | inconclusive: -31.4% |
| COc1ccccc1S(=O)(=O)N(C)C[C@H]1Oc2cc(Br)ccc2S(=O)(=O)N([C@@H](C)CO)C[C@H]1C | inconclusive: -34.3% |
| CCOC(=O)CC(=O)Nc1cc(Cl)ccc1O | inactive: 23.7% |
| Cc1ccc(NC(=O)c2c(C)noc2C)cc1 | inconclusive: -48.3% |
| O=C(NCCCN1CCN(c2ccc(F)cc2)CC1)NC12CC3CC(CC(C3)C1)C2 | active: -81.8% |
| C=C1[C@H](C)CN(S(=O)(=O)C(C)(C)C)[C@H]1CCO | inconclusive: -40% |
| CCCOc1c(OC)cc(Cl)cc1C1NC(=O)NC(C)=C1C(=O)NCc1ccccc1 (configuration not stated) | inactive: -16.5% |
| CC(C)N1CCC(C)(C(=O)Nc2ccc(-n3cccc3)cc2)C1 (configuration not stated) | inconclusive: -46.9% |
| O=S(=O)(c1ccc2ccccc2c1)N1CCN(C2CCN(Cc3ccccc3)CC2)CC1 | active: -61.4% |
| CCCc1cc(C(=O)Nc2cccc([N+](=O)[O-])c2)cs1 | inactive: -21.6% |
| Cc1ccc2c(CN(C)Cc3ccc(Cl)cc3Cl)cc(=O)oc2c1 | inactive: -9.3% |

Sorted by formula weight (high to low): part of the list above

| Compound | max response, negative = inhibition |
| --- | --- |
| O=C(NCCCN1CCN(c2ccc(F)cc2)CC1)NC12CC3CC(CC(C3)C1)C2 | active: -81.8% |
| OCC1(Cc2ccccc2F)CCCN(Cc2c(F)ccc(F)c2F)C1 (configuration not stated) | inconclusive: -47.2% |
| CCCc1cc(C(=O)Nc2cccc([N+](=O)[O-])c2)cs1 | inactive: -21.6% |

Carrying on.

| Compound | max response, negative = inhibition |
| --- | --- |
| Cc1cccc(NC(=O)C2C(c3ccccc3)C2(Cl)Cl)c1 (configuration not stated) | inconclusive: -38.9% |
| CN(C)CCCNC(=O)N1c2ccccc2Sc2ccccc21 | inconclusive: -31.1% |
| COc1cc(NC(=O)c2ccc([N+](=O)[O-])o2)ccc1NC(=O)c1cccs1 | inconclusive: -41.9% |
| CN(C)S(=O)(=O)c1cccc(-n2sc3ccccc3c2=O)c1 | inconclusive: -48.3% |
| CN1CCc2nc(SCCOc3ccccc3)c(C#N)cc2C1 | active: -58.3% |
| CCOC(=O)N1CCN(c2c(NCC3CCCO3)c(=O)c2=O)CC1 (configuration not stated) | inconclusive: -33.5% |
| CC1(C)Cc2c(C#N)c(N3CCOCC3)nc(-c3ccccc3)c2CO1 | inactive: 10.7% |
| CN1CCN(CC(=O)c2cc(C(C)(C)C)c(O)c(C(C)(C)C)c2)CC1 | inconclusive: -34.2% |
| Cc1cccc(-c2c3c(=O)n(C)c(=O)n(C)c3cn2-c2ccccc2O)c1 | inconclusive: -32.9% |
| Cc1nn(Cc2ccccc2)c(C)c1NC(=O)c1cc(-c2cccs2)on1 | inconclusive: -46.7% |
| CCNc1sc(C(=O)c2cccs2)c(N)c1C#N | inconclusive: -34.1% |
| CC(=O)N1CCCc2cc(S(=O)(=O)N3CCCC(C(=O)Nc4ccccc4C)C3)ccc21 (configuration not stated) | inactive: 3.48% |
| COc1ccc2c(CC(=O)OCC(=O)c3ccc(F)cc3)coc2c1 | inconclusive: -31% |
| O=C(Nc1ccc(NC(=O)C2CCCCC2)nc1)c1cccs1 | inconclusive: -35.4% |
| O=C(NC1CCN(Cc2ccccc2)CC1)c1cn(-c2ccccc2)nc1-c1cccnc1 | inconclusive: -34.1% |
| C=C[C@@H]1c2c(F)cccc2N(S(=O)(=O)c2ccc(C)cc2)[C@H](c2ccc(C(=O)OC)cc2)C1(C#N)C#N | inactive: 4.52% |
| CCn1c(Cc2ccccc2)nnc1SCC(=O)N1CCCC1=O | inactive: 19.2% |
| O=C(NNS(=O)(=O)c1ccc(F)cc1)C1CCN(Cc2cccc(F)c2)CC1 | inconclusive: -32.5% |
| CC(=O)N1CCc2c(sc(NC(=O)c3ccc([N+](=O)[O-])o3)c2C(N)=O)C1 | active: -91.1% |
| Cn1cnc2cc(NC(=O)c3ccc(Cl)cc3)ccc21 | inconclusive: -31.3% |
| CCn1c(COc2ccc3ccccc3c2C)nnc1SCC(=O)Nc1cccc(C(=O)O)c1 | inconclusive: -36.6% |
| Cn1cc(C(=O)c2ccc(Cl)cc2Cl)cc1C(=O)N/N=C(\N)COc1ccc(Cl)cc1Cl | inconclusive: -44.5% |

| Compound | max response, negative = inhibition |
| --- | --- |
| COc1ccc(CNCc2cccc(C)c2)cc1 | inconclusive: -48.7% |
| CCN(CC)C(=O)CSc1nnc([C@H](CCSC)NC(=O)OC(C)(C)C)o1 | inconclusive: -36.6% |
| O=C(COc1ccc(Br)cc1)Nc1ccc(CN2CCOCC2)cc1 | inactive: 6.84% |
| CCC1CCCCN1C/C=C/c1ccccc1[N+](=O)[O-] (configuration not stated) | active: -55.2% |
| CCN(CC)c1ccc2c(cc1=O)[C@@H](NC)CCc1cc(OC)c(OC)c(OC)c1-2 | inconclusive: -33.4% |
| CCOC(=O)COc1ccc2c(c1)C(=O)CC(C)(c1cccnc1)O2 (configuration not stated) | inactive: 22.5% |
| CCOC(=O)C1CCN(CCCSc2ccccc2)CC1 | inconclusive: -39.2% |
| COC(=O)c1cc(C(=O)NCc2ccc3c(c2)OCO3)cc([N+](=O)[O-])c1 | inactive: 3.08% |
| O=C(c1ccc(=O)oc1)N1CCN(c2ccc(F)cc2)CC1 | inconclusive: -41.5% |
| CSc1nc(-c2ccccc2)nc(C(Cl)Cl)n1 | inconclusive: -45.3% |
| Cc1ccc(Cl)cc1-c1cc(C(=O)Nc2ccc(F)cc2)[nH]n1 | active: -85.1% |
| C[C@H]1CCCCO[C@H](CN(C)C(=O)Nc2ccc(F)cc2)[C@@H](C)CN([C@@H](C)CO)C(=O)c2cc(NC(=O)Nc3ccc4c(c3)OCO4)ccc2O1 | inactive: 34.9% |
| COc1cccc(Cn2cccc(NC(=O)NC3CCCCC3)c2=O)c1 | inactive: -23.7% |
| CCCC[C@@H]1C[C@H]1[C@@H](NC(=O)c1cccs1)c1ccc(Cl)cc1 | inactive: 53% |
| CCOc1ccc(NCC(=O)c2ccc(C)cc2)cc1 | inactive: -12.7% |
| CCOC(=O)C(Cc1ccccc1)C(=O)Nc1ccc(N(CC)CC)cc1 (configuration not stated) | inconclusive: -37.3% |
| CCc1nc2c(OCC(=O)N3CCOCC3)cccn2c1N(C)C(=O)COc1ccccc1 | active: -52.7% |
| Cc1nn(-c2ccccc2)c(C)c1NC(=O)COC(=O)c1ccc(Cl)c(S(N)(=O)=O)c1 | inconclusive: -42.3% |
| CCCCOc1ccccc1N1CCN(CCCN2C(=O)C3CCCN3C2=O)CC1 (configuration not stated) | active: -87.2% |
| OC(c1ccc(Cl)cc1)c1ncc(-c2ccccc2Cl)[nH]1 (configuration not stated) | inconclusive: -32.6% |
| COc1ccc(-c2nnc(-c3cccnc3)o2)cc1OC | inactive: -12.9% |
| COc1ccc(C(=O)N/N=C/c2cccc3cccnc23)cc1 | inconclusive: -39.3% |

Copied from the list:
`CSc1nc(-c2ccccc2)nc(C(Cl)Cl)n1` | max response, negative = inhibition: inconclusive: -45.3%
`OC(c1ccc(Cl)cc1)c1ncc(-c2ccccc2Cl)[nH]1` (configuration not stated) | max response, negative = inhibition: inconclusive: -32.6%
`CCc1nc2c(OCC(=O)N3CCOCC3)cccn2c1N(C)C(=O)COc1ccccc1` | max response, negative = inhibition: active: -52.7%

Additional records.

| Compound | max response, negative = inhibition |
| --- | --- |
| C/C(=N\NC(=O)c1ccc([N+](=O)[O-])cc1)c1cccc([N+](=O)[O-])c1 | inconclusive: -34.4% |
| Cc1[nH]c2ccccc2c1C(c1ccccn1)N1CCC(C(N)=O)CC1 (configuration not stated) | inconclusive: -48.5% |
| CN(c1ccc(C(=O)Nc2cccnc2)cc1)S(C)(=O)=O | inconclusive: -47.1% |
| Cc1ccc(S(=O)(=O)NCc2ccccc2)s1 | inconclusive: -35% |
| Cc1cccn2c(CNCCCn3ncc4ccccc43)c(C(=O)N3CCCCC3)nc12 | inconclusive: -46.8% |
| O=C1C(NS(=O)(=O)c2cccs2)=C(N2CCN(c3ccccc3)CC2)C(=O)c2ccccc21 | inconclusive: -45% |
| C/C(=N\NC(=O)C(c1ccccc1)c1ccccc1)c1ccccn1 | active: -75.7% |
| CC(=O)Oc1cc(C(=O)OCC(=O)NC23CC4CC(CC(C4)C2)C3)cc(OC(C)=O)c1OC(C)=O | inactive: -4.93% |
| Brc1ccc(-c2nnc3c4ccccc4nc(N4CCOCC4)n23)cc1 | inactive: 12.1% |
| O=C(c1ccco1)N1N=C(c2ccco2)CC1c1ccc(Cl)cc1Cl (configuration not stated) | inactive: -7.43% |
| O=C(O)Cc1ccc(NC(=O)c2ccc3c(c2)C(=O)N(Cc2ccco2)C3=O)cc1 | inactive: -6.56% |
| O=C(COc1ccc(/C=N/NS(=O)(=O)c2ccccc2)cc1)NCCc1ccccc1 | inconclusive: -35.5% |
| CN(C)CCNc1ncnc2c1ncn2[C@H]1CN(Cc2ccc(Cl)cc2)C[C@@H](CO)O1 | inconclusive: -40.9% |
| CC(=O)Nc1cc2c(cc1NC(=O)c1cnccn1)OCCO2 | inconclusive: -48.3% |
| COc1cccc(CN(C)C(=O)CC[C@H]2O[C@@H](n3ccc(=O)[nH]c3=O)[C@H](O)[C@@H]2O)c1 | inactive: 3.52% |
| COc1ccc(NC(=S)NCCNC(C)=O)cc1 | inconclusive: -33.9% |
| Nn1cnnc1N/N=C/c1ccc(Cl)c([N+](=O)[O-])c1 | inconclusive: -47.4% |
| Cc1ccc(/C=C/C(=O)Nc2nc3ccccc3[nH]2)cc1 | inconclusive: -30.5% |
| OC1(c2ccc3c(c2)OCO3)CCN(Cc2ccccn2)CC1 | inconclusive: -42.9% |
| Cc1ccc(C)c(N2CCN(CCCNC(=O)Cn3c(=O)c4cccn4c4cccnc43)CC2)c1 | active: -98.2% |
